Assay results: PubChem BioAssay AID588497 (NMMLSC, 2011)
In all, about 360,000 compounds went through this assay and about 780 (0.22%) were called active. The shares of active, inactive and inconclusive entries below differ from those in the screen. No stated cut-off is given here; in the data, active means inhibition above about 35% (passing the limit was not always enough); inconclusive means no clear call, values can overlap the other calls.

What follows are compounds tested on Botulinum neurotoxin type F light chain protease (Clostridium botulinum) (assay: BoNT/F light chain protease inhibitors, primary screen, biochemical, flow cytometry, MLPCN library (AID 588497; further: plate controls were buffer without enzyme for full effect and enzyme alone for no effect)). Conditions: Multiplex microsphere protease cleavage assay, at 10 µM, stronger effect = higher value.
For `O=C(Cc1nnc(NC(=O)c2ccccc2)s1)N/N=C\c1ccc(O)c(O)c1`, the inhibition was inconclusive: 55.6%. In the case of `COc1cccc(NC(=O)c2ccccc2-c2ccccc2C(=O)O)c1`, the inhibition was inconclusive: -1.9%. For `Brc1cccc(OCCCCN2CCCCC2)c1`, the inhibition was active: 35.2%. In the case of `CCOc1ccc(NC(=S)NC(=O)c2cccnc2)c([N+](=O)[O-])c1`, the inhibition was inconclusive: 6.3%. `CCCCCN(C(=O)CCC(=O)OC(C)C(=O)NC1CCCCC1)c1c(N)n(CCCC)c(=O)[nH]c1=O` (stereo not drawn) was tested, and the inhibition was inconclusive: 18.1%. For `CC(C)CCNC(=O)c1cccc(C(=O)NCCC(C)C)c1`, the inhibition was inconclusive: -6.6%. For `CC(C)c1ccc(-c2nn[nH]n2)cc1`, the inhibition was inconclusive: -32.6%. In the case of `O=C(CN1CCN(Cc2ccccc2)CC1)Nc1cccc(C(F)(F)F)c1`, the inhibition was inconclusive: -19.2%. For `COc1ccc(C(=O)Nn2c(SCC(=O)N3CCC(C)CC3)nc3ccccc3c2=O)cc1`, the inhibition was inactive: -4.9%. In the case of `COc1ccc(C)cc1NC(=O)CCN1CCN(c2ccccc2)CC1`, the inhibition was inconclusive: -31.2%. For `Cc1cc(-c2nnc(-c3cccc(C(F)(F)F)c3)o2)no1`, the inhibition was inconclusive: 54.3%. In the case of `CCOC(=O)Cn1c(=O)oc2cc(S(=O)(=O)NC3CCCCC3)ccc21`, the inhibition was inactive: -8%. With `CC1=CC(=O)Nc2cncnc2N1` the inhibition was inactive: 4.2%. In the case of `Cc1ccc2[nH]cc(CCNC(=O)C3CCCCC3)c2c1`, the inhibition was active: 50%. In the case of `CCOc1ccccc1NC(=O)Nc1ccon1`, the inhibition was inactive: -2.5%. For `COc1ccc(CN2CCN(C3CCC3)CC2CCO)cc1C` (stereo not drawn), the inhibition was inconclusive: 19.3%. For `N#Cc1c(-c2ccc(Cl)cc2)cc(-c2cccs2)nc1SCC(=O)O`, the inhibition was inconclusive: 18.2%. For `CN1CCN(C(=O)COc2ccc(S(=O)(=O)Nc3ccc(Cl)cc3)cc2)CC1`, the inhibition was inactive: -1.5%. With `CCCCOC(=O)c1ccc(NC(=O)C(=O)NCCN(CC)CC)cc1` the inhibition was inconclusive: 36.4%. In the case of `CCn1ncc(Br)c1C(=O)Nc1ccc(OC(F)(F)F)cc1`, the inhibition was inconclusive: 12.9%. `COc1ccc(OC)c(S(=O)(=O)Nc2cccc3ccccc23)c1` was tested, and the inhibition was inconclusive: -20.4%. In the case of `CC(=O)N1CCc2[nH]c3ccc(C)cc3c2C1`, the inhibition was inconclusive: 0.6%. `CC(C)Oc1ccc(C(=O)/C=C2/C(=O)Nc3ccccc32)cc1` was tested, and the inhibition was inconclusive: -29.3%. With `COc1ccc(C)cc1S(=O)(=O)NNc1nc(C)cc(C)n1` the inhibition was inactive: 1.2%. `COc1ccc(C2(C(=O)NCCCN(C)C)CCOCC2)cc1` was tested, and the inhibition was inconclusive: -19.5%. `Cn1c2ccccc2n2c(=O)cc(-c3ccccc3)c(C#N)c12` was tested, and the inhibition was inconclusive: 137%. `CN(C(=O)COC(=O)c1cn(C)c2ccccc12)C1CCCCC1` was tested, and the inhibition was inconclusive: 11.6%. With `Cc1c(CCC(=O)N[C@@H](CCCNC(N)=O)C(=O)O)c(=O)oc2cc3oc4c(c3cc12)CCCC4` the inhibition was inconclusive: 22.6%. In the case of `COC(=O)C1C(=O)C(C(=O)c2ccc([N+](=O)[O-])cc2)C(=O)CC1(C)C` (stereo not drawn), the inhibition was inconclusive: 34.1%. For `COc1ccc(NS(=O)(=O)c2cccc(C(=O)Nc3ccccc3C(=O)O)c2)cc1`, the inhibition was inconclusive: 14.3%. With `COc1ccc(-c2nnn(CC#N)n2)cc1OC` the inhibition was inconclusive: 10.9%. In the case of `CCN(CC)C(=O)c1cccc2nc3ccccc3nc12`, the inhibition was inactive: -1.4%. In the case of `CC1CCCCN1Cc1c(O)ccc2c(=O)c(-c3ccc(Cl)cc3Cl)coc12` (stereo not drawn), the inhibition was inconclusive: -4.6%. In the case of `CCCOc1ccc(C(=O)NNC(=S)NC(=O)c2ccccc2[N+](=O)[O-])cc1`, the inhibition was inconclusive: 17.3%. In the case of `Cc1cc(C)c2c(N)c(C(=O)Nc3ccccc3F)sc2n1`, the inhibition was inconclusive: -8.6%. In the case of `O=C(CSc1ncccn1)NC1CCS(=O)(=O)C1` (stereo not drawn), the inhibition was inconclusive: 0%. In the case of `CC1=NCCc2c1[nH]c1cc(O)ccc21`, the inhibition was inactive: -57.1%. For `CC(=O)Oc1ccc2nc(-c3ccc(Br)o3)oc(=O)c2c1`, the inhibition was inconclusive: 10%. For `CCC(NC(=O)NC1=NCCS1)(C(F)(F)F)C(F)(F)F`, the inhibition was inactive: -2.5%. `COc1cccc(CC2(CO)CCN(S(=O)(=O)c3ccc(OC)cc3OC)CC2)c1` was tested, and the inhibition was inconclusive: -6.3%. With `Cc1cccc(-c2cc(C(=O)NCc3ccccn3)c3ccccc3n2)c1` the inhibition was inactive: 1.4%. In the case of `O=C(CN1C(=O)COc2ccccc21)Nc1ccccc1F`, the inhibition was inconclusive: -8%. For `COc1ccc(S(=O)(=O)Oc2c(OC)cc(C(=S)N3CCOCC3)cc2OC)cc1`, the inhibition was inconclusive: 21.9%. `CCOc1ccc2[nH]c3c(NCCOC)ncnc3c2c1` was tested, and the inhibition was inconclusive: -12.8%. In the case of `COC(=O)[C@H]1[C@H](c2ccccc2)[C@H](C(=O)OC)O[C@H]1c1ccccc1`, the inhibition was inconclusive: -38.4%. With `OCCC1CN(Cc2ccc(F)cc2)CCN1CCc1ccccc1` (stereo not drawn) the inhibition was inconclusive: 32.2%. `Brc1c(C[n+]2ccccc2)nc2ccccn12` was tested, and the inhibition was inconclusive: 42.3%. `COC(=O)C1=C(C)NC(=S)NC1c1ccc(-c2ccccc2C(=O)OC)o1` (stereo not drawn) was tested, and the inhibition was inactive: -2.7%. `CCOC(=O)C1=C(C)NC2=C(C(=O)c3ccccc32)C1c1ccc(O)cc1` (stereo not drawn) was tested, and the inhibition was inactive: -1.8%. With `CCC(C(=O)OCC(=O)NC(=O)c1ccccc1)c1ccccc1` (stereo not drawn) the inhibition was inconclusive: 6.4%. `O=C(O)c1cc2c(s1)-c1ccccc1CC2` was tested, and the inhibition was inactive: -4.9%. For `CN1CCC(CNC(=O)Nc2csc3ccccc23)CC1`, the inhibition was inconclusive: -54.9%. For `CCOC(=O)c1c(NC(=O)COC(=O)c2cnccn2)sc(C)c1C`, the inhibition was inactive: -2.2%. In the case of `O=C(Nc1ccccc1C(=O)Nc1nncs1)c1ccccc1`, the inhibition was active: 39.6%. `COc1ccc2[nH]c3c(c2c1)CCNC3c1ccc([N+](=O)[O-])o1` (stereo not drawn) was tested, and the inhibition was inconclusive: -295%. With `COCCNC(=O)/C(C#N)=C/c1c(N2CCN(c3ccc(OC)cc3)CC2)nc2c(C)cccn2c1=O` the inhibition was inconclusive: -7.2%. For `CCn1c2ccccc2c2nnc(SCCN3CCOCC3)nc21`, the inhibition was inconclusive: 12.3%. With `O=C(O)c1ccc(NS(=O)(=O)c2cccc(C(=O)Nc3ccc(Br)cc3)c2)cc1` the inhibition was inconclusive: 34.7%. For `Cc1cccc(N2C(=O)C(Cl)=C(N3CCOCC3)C2=O)c1`, the inhibition was inconclusive: -24%. For `COc1ccccc1NC1=NC2(CCCC2)N=C(N)N1`, the inhibition was inconclusive: -38.4%. `O=C(O)C1Cc2ccccc2CN1C(=O)c1ccco1` (stereo not drawn) was tested, and the inhibition was inconclusive: -10.5%. For `CCC1CCC2(CC1)NC(=O)N(CC(=O)N1CCc3ccccc31)C2=O` (stereo not drawn), the inhibition was inactive: 5.9%. For `Cc1ccc(-c2nc(CS(=O)CC(=O)NCCCc3ccccc3)c(C)o2)cc1` (stereo not drawn), the inhibition was inactive: 0.9%. With `O=C(NCCCN1CCCC1)Nc1ccccc1[N+](=O)[O-]` the inhibition was inconclusive: -14.8%. `Cn1c(N)c(C(=O)COC(=O)C2CCN(S(=O)(=O)c3cccs3)CC2)c(=O)n(C)c1=O` was tested, and the inhibition was inactive: 4.7%. With `O=C(CNC(=O)c1ccc(F)cc1)c1ccccc1` the inhibition was inconclusive: -5.8%. `CC(Sc1nnc(-c2ccccc2F)n1N)C(=O)NCC1CCCO1` (stereo not drawn) was tested, and the inhibition was inconclusive: -7.4%. `Cc1cc(C(F)F)n2ncc(C(=O)NCCc3ccc(Cl)cc3)c2n1` was tested, and the inhibition was inconclusive: -26.6%. For `CCOc1ccccc1NC(=O)COc1ccc2c(c1)OCO2`, the inhibition was inactive: -20.4%. In the case of `C=CCn1c(SCc2ccccc2)nc2c1c(=O)[nH]c(=O)n2C`, the inhibition was inconclusive: 6.7%. In the case of `COc1ccc(S(=O)(=O)NNC(=O)C23CC4CC(CC(C4)C2)C3)cc1[N+](=O)[O-]`, the inhibition was inactive: 2.1%. `COc1ccccc1NC(=O)c1ccc(C)c(S(=O)(=O)N2CCCCC2)c1` was tested, and the inhibition was inactive: 2.3%. With `Nc1c(Cl)cnn(-c2ccccc2)c1=O` the inhibition was inconclusive: 12.3%. `Cc1ccc(C(C)C)c(OCC(O)CNC2CCCC2)c1` (stereo not drawn) was tested, and the inhibition was inconclusive: -9.7%. In the case of `Cc1ccc(S(=O)(=O)N2CCN(C(=O)N3CCOCC3)C2c2ccc(N(C)C)cc2)cc1` (stereo not drawn), the inhibition was inactive: 5.5%. In the case of `C=CCn1c(=O)c(C(=O)NCc2ccccc2)c(O)c2ccccc21`, the inhibition was inconclusive: -6.1%. For `Cc1ccc(NC(=S)NNC(=O)c2cccc([N+](=O)[O-])c2)cc1Cl`, the inhibition was inconclusive: 80.8%. For `CSc1cccc(NC(N)=S)c1`, the inhibition was inconclusive: 33.7%. In the case of `C1CCCC(NC2=NCCO2)CCC1`, the inhibition was inconclusive: 11.4%. In the case of `CC(=O)Nc1ccc(CN2CCCN(C)CC2)cc1`, the inhibition was inconclusive: -16.8%. With `Cc1ccc[n+](-c2[nH]c(=O)sc2/C=N/N=C(\[O-])CCn2c3ccccc3c3ccccc32)c1` the inhibition was inconclusive: 11.6%. In the case of `Cc1ccc(S(=O)(=O)Cc2ccc(C(=O)NCCCN3CCN(C)CC3)o2)cc1`, the inhibition was inactive: -3.6%. `CCOc1ccc(CNCCCSc2ncccn2)cc1OC` was tested, and the inhibition was inconclusive: 12.3%. For `CC(=O)Nc1cccc(C(=O)N/N=C/c2cccc(C)n2)c1`, the inhibition was active: 45.5%. In the case of `CCOc1nc(-c2ccccc2)ccc1-c1noc(-c2cccs2)n1`, the inhibition was inactive: 7.6%. In the case of `CSc1n[nH]c(-c2ccc(C(F)(F)F)cc2)n1`, the inhibition was inconclusive: 146%. With `Cc1ccccc1NS(=O)(=O)c1ccc(C(=O)N2CCN(c3ccccn3)CC2)cc1` the inhibition was inactive: -5.1%. For `COc1cc(CC(=O)N(C)CC(=O)Nc2ccc(Cl)c(C(F)(F)F)c2)cc(OC)c1OC`, the inhibition was inactive: -4.6%. For `CN1c2ccccc2C(=O)/C(=C\Nc2ncccn2)S1(=O)=O`, the inhibition was inconclusive: 15.5%. `O=S(=O)(Nc1ccncc1)c1cc(Cl)c(Cl)cc1Cl` was tested, and the inhibition was inconclusive: 13.8%. With `O=C(COC(=O)c1ccccc1NS(=O)(=O)c1cccs1)NC1CCCCC1` the inhibition was active: 45.1%. For `O=C(OCc1cc(=O)n2ccsc2n1)c1ccc(OC(F)F)cc1`, the inhibition was inactive: 3%. For `C=CCCCCCCCCc1nc(SCC(C)=O)n[nH]1`, the inhibition was inconclusive: 20.8%.
